Results published in PMC12040169 (PLOS Biology, 2025).
This is one part of the list.

The compounds below were run on T1, CTL2-GFP (C. trachomatis L2/434/Bu, GFP-expressing). Settings: bulk GFP, single well; 28.5 h, 10 µM; inhibitor.
T1 construct: L2/434/Bu, GFP-expressing
Parameters: species or system HeLa; Intracellular C. trachomatis growth in HeLa cells, bulk GFP fluorescence relative to DMSO
With `COc1ccc(C2(NCc3ccc4c(c3)n(C)c(=O)n4C)CC2)cc1` [CBK282836] the “% of control remaining” value was 103.16%. With `COc1ccc(N(C)C(=O)N[C@@H]2CC[C@@]3(c4ccc(OC)c(OC)c4)CCN(C)[C@H]3C2)cc1` [CBK045653T] the “% of control remaining” value was 110.368%. With `COc1ccc(C(=O)N2CCN(c3ncnc4onc(C)c34)CC2)cc1` [CBK304372] the “% of control remaining” value was 109.452%. With `COc1cccc(CNc2nccnc2-c2ccc(S(C)(=O)=O)cc2)c1OC` [CBK037452] the “% of control remaining” value was 116.938%. With `Cc1nn(C)c(Cl)c1S(=O)(=O)Nc1nnc(C(F)(F)F)s1` [CBK062003] the “% of control remaining” value was 130.107%. In the case of `CC1=C(C(=O)N2CCOCC2)C(c2ccc(Cl)cc2)NC(=O)N1c1ccc(C(=O)O)cc1` (stereo not drawn) [CBK296999], the “% of control remaining” value is reported as 139.092%. For `C[C@H]1[C@@H]2[C@@H](O)C([C@H](C)C(=O)NC3CC3)CC[C@@]2(C)CC[C@@H]1NC(=O)C1CC1` (stereo partly drawn) [CBK289442], the “% of control remaining” value was 110.373%. `CC(C)(C)C1=CC2=NC3(CCOCC3)[C@@H]3C[C@@H](O)[C@@H](O)[C@@H]3N2O1` [CBK303244] was tested, and the “% of control remaining” value was 146.818%. For `CCCc1[nH]nc(O)c1CC1CC1` [CBK081129], the “% of control remaining” value was 107.243%. In the case of `N#Cc1ccc(CN2CCN(S(=O)(=O)c3ccc(-c4ccccc4)cc3)CC2)cc1` [CBK062752], the “% of control remaining” value is reported as 105.914%. `CC1(C)CC(NC(=O)c2cccc([N+](=O)[O-])c2)CC(C)(C)N1` [CBK262952C] was tested, and the “% of control remaining” value was 131.114%. `O=C(Cc1ccsc1)N1CCC(c2cc3cccnc3[nH]2)CC1` [CBK285000] was tested, and the “% of control remaining” value was 114.774%. For `CN(C)c1cccc(-c2nc(-c3occc3C=O)cnc2N)c1` [CBK064001], the “% of control remaining” value was 134.2%. With `O=C(Nc1ccccn1)c1cc(O)c(OCc2ccccc2)cn1` [CBK287989] the “% of control remaining” value was 100.045%. `O=C(O)CCC1C(=O)CCC1(C(=O)O)c1ccccc1` (stereo not drawn) [CBK287208] was tested, and the “% of control remaining” value was 99.739%. For `CC(C)c1ccc(CN2CCN(c3nccnc3NS(C)(=O)=O)CC2)cc1` [CBK084271], the “% of control remaining” value was 106.162%. `CN1CCN(CCC(=O)N/N=C/c2ccccn2)CC1` [CBK261501] was tested, and the “% of control remaining” value was 98.4108%. For `O=C(O)CCSc1c[nH]c2ccccc12` [CBK262319], the “% of control remaining” value was 126.548%. With `Nc1ncc(-c2cccc(O)c2)nc1-c1ccc(CCC(=O)O)cc1` [CBK064135] the “% of control remaining” value was 102.94%. For `COC(=O)c1ccc(Cn2cc(NC(=O)NCCc3cccs3)cn2)o1` [CBK043825], the “% of control remaining” value was 131.467%. For `CC(=O)Nc1ccc(S(=O)(=O)Nc2ccc(S(=O)(=O)Nc3cc(C)ccc3C)cc2)cc1` [CBK264745], the “% of control remaining” value was 100%. In the case of `O=C(c1ccsc1)N1CCC2(CC1)CN(Cc1ccccc1)CC(c1ccccc1)O2` (stereo not drawn) [CBK286438], the “% of control remaining” value is reported as 44.4862%. With `O=C(NCc1ccco1)c1nccnc1-c1ccc(COc2ccc3c(c2)CCCC3)cc1` [CBK050851] the “% of control remaining” value was 144.124%. `CCCNC(=O)N1CCC(n2c(C)nc3cccnc32)CC1` [CBK282292] was tested, and the “% of control remaining” value was 120.385%. For `O=C(CN1CCC(O)(Cn2cnc3ccccc32)CC1)c1ccc(-c2ccccc2)cc1` [CBK286306], the “% of control remaining” value was 126.042%. `COc1ccccc1-c1ncc(OCC(F)(F)F)nc1NC(=O)C1CC1` [CBK145275] was tested, and the “% of control remaining” value was 114.608%. For `CCc1ccc(C(=O)NC(Cc2c[nH]c3ccccc23)C(=O)O)cc1` (stereo not drawn) [CBK269556], the “% of control remaining” value was 107.334%. With `C=CCOC(=O)N1CCC(C(=O)N(C)C(c2cccc(OC)c2)c2ccccn2)CC1` (stereo not drawn) [CBK060244] the “% of control remaining” value was 142.797%. `O=C(c1ccccc1)N1C[C@@H](c2ccsc2)[C@@H]2CN(Cc3ccc(Cl)cc3)CC[C@@H]21` [CBK285615] was tested, and the “% of control remaining” value was 64.0237%. With `CC(=O)NCCC(CN1CCOCC1)([N+](=O)[O-])[N+](=O)[O-]` [CBK261338] the “% of control remaining” value was 100%. `O=C(CCn1c(C(F)(F)F)cc2cccnc21)NCc1cccnc1` [CBK284865] was tested, and the “% of control remaining” value was 121.877%. In the case of `CN1CCN(c2ccc(-c3cccc(N(C)C)c3)cn2)CC1` [CBK037621], the “% of control remaining” value is reported as 149.748%. `CC[C@H]1CCCCN1C(=O)c1sc2nc(C(C)=O)ccc2c1Cl` [CBK091046] was tested, and the “% of control remaining” value was 99.9157%. For `O=C(CN(c1cc(Cl)ccc1Cl)S(=O)(=O)c1ccccc1)Nc1cccnc1` [CBK268708], the “% of control remaining” value was 111.702%. `Cc1ccc2[nH]c(Cc3ccc(NC(=O)c4cccc5c(=O)cc(C)[nH]c45)cc3)nc2c1` [CBK285814] was tested, and the “% of control remaining” value was 129.206%. `Cc1cccnc1NC(=O)c1cccc(C(=O)Nc2ncccc2C)c1` [CBK262184] was tested, and the “% of control remaining” value was 112.038%. For `Cc1cc(CSc2ccccc2)ccc1NC(=O)/C=C/c1cccc([N+](=O)[O-])c1` [CBK264687], the “% of control remaining” value was 114.796%. In the case of `COc1ccc(-c2c[n+]3ccccc3c(=O)[nH]2)cc1` [CBK011078B], the “% of control remaining” value is reported as 122.801%. For `C=CCn1c(Cc2csc(NC(=O)c3cnc(SC)n3-c3ccccc3)n2)n[nH]c1=S` [CBK297786], the “% of control remaining” value was 139.485%. `Clc1ccc(COc2cccc(CNCCN3CCOCC3)c2)cc1` [CBK278227C] was tested, and the “% of control remaining” value was 116.868%. For `Cn1cccc1C(=O)N[C@H]1CCN2C(=O)N(c3ccc(OC(F)(F)F)cc3)C(=O)[C@@H]2C1` [CBK289548], the “% of control remaining” value was 114.098%. In the case of `CN(Cc1nc2c(s1)CCCC2)C(=O)c1ccc2[nH]cnc2c1` [CBK304138], the “% of control remaining” value is reported as 127.551%. `COc1ncc(-c2cccc(NCC(c3cccnc3)N(C)C)n2)c(OC)n1` (stereo not drawn) [CBK037723] was tested, and the “% of control remaining” value was 157.862%. `CCOc1ccc(-c2ccnc(C)n2)cc1C(=O)O` [CBK306505] was tested, and the “% of control remaining” value was 137.427%. `Nc1cc2ccccc2c(-c2cc(F)cc(F)c2)n1` [CBK085711] was tested, and the “% of control remaining” value was 101.156%. With `Cc1ccc2c(c1)nc(CNC(=O)NC1CCCc3cn[nH]c31)n2C` (stereo not drawn) [CBK305554] the “% of control remaining” value was 119.754%. For `COc1ccc(C(=O)N[C@H]2CO[C@H]3[C@@H]2OC[C@H]3OC(=O)Nc2ccccc2)cc1` [CBK289463], the “% of control remaining” value was 101.252%. With `CC1(C)CC(NC(=O)CCc2cc(C(C)(C)C)c(O)c(C(C)(C)C)c2)CC(C)(C)N1` [CBK261986] the “% of control remaining” value was 87.0164%. `O=C(O)c1csc(S(=O)(=O)Nc2ccc(Br)cc2Cl)c1` [CBK297731] was tested, and the “% of control remaining” value was 151.644%. For `CCOC(=O)c1c(-c2ccccc2)csc1NS(=O)(=O)c1ccc(C)cc1` [CBK015841], the “% of control remaining” value was 111.413%. For `COc1ccc(C(=O)Nc2cc3ccccc3c(N3CCNCC3)n2)cc1` [CBK036344T], the “% of control remaining” value was 86.8844%. In the case of `Cc1ccc(C(=O)Nc2nc3ccc4nc(C)sc4c3s2)cc1` [CBK287305], the “% of control remaining” value is reported as 125.371%. For `Cn1cnnc1SCC(C)(C)NS(=O)(=O)c1ccccc1` [CBK268276], the “% of control remaining” value was 110.693%. With `O=C(NC(=O)N1CCC2(CC1)NCCc1c2[nH]c2ccc(O)cc12)c1ccccc1` [CBK046936] the “% of control remaining” value was 128.658%. In the case of `COc1ccc(CN2CCN(Cc3ccccc3[N+](=O)[O-])CC2)c(OC)c1` [CBK263340], the “% of control remaining” value is reported as 116.868%. With `Cc1nn2c3ccccc3nc2n1CCN1CCCCC1` [CBK278256C] the “% of control remaining” value was 94.4189%. With `CCc1nnc(NCC2CCCCC2)s1` [CBK075044] the “% of control remaining” value was 103.099%. With `Cc1nn(Cc2ccc(C(=O)Nc3c(C)nn(Cc4ccc(Cl)c(Cl)c4)c3C)o2)c(C)c1Br` [CBK265855] the “% of control remaining” value was 109.835%. `C[S+]([O-])c1ccc(-c2ccc(CN(C3CC3)C3CCN(c4ncccn4)CC3)cn2)cc1` (stereo not drawn) [CBK172877] was tested, and the “% of control remaining” value was 112.538%. `Nc1nc(OCCOc2ccccc2)cnc1-c1ccsc1` [CBK145163] was tested, and the “% of control remaining” value was 100%. With `Cc1ccc(Nc2ncc(C(=O)NCCCN3CCN(c4cccc(Cl)c4)CC3)c3ccccc23)cc1Cl` [CBK291251] the “% of control remaining” value was 30.0022%. `CN1C[C@@H](NC(=O)c2ccc(C#N)cc2)C[C@H]1c1nc(-c2ccc(F)cc2)no1` [CBK288865] was tested, and the “% of control remaining” value was 104.829%. `O=c1[nH]c2cc(Cl)cc(Cl)c2o1` [CBK015711] was tested, and the “% of control remaining” value was 116.026%. In the case of `O=C(Cc1csc(-c2ccsc2)n1)Nc1nc2c(s1)CCC2` [CBK297935], the “% of control remaining” value is reported as 106.254%. With `CCN(Cc1nccn1CC)[C@H]1CCO[C@@H](c2ccccc2-c2ccc(OC)cc2)C1` [CBK285852] the “% of control remaining” value was 95.1836%. `CCc1[nH]nc2c1C(C1C=CCCC1)C(C#N)=C(N)O2` (stereo not drawn) [CBK270236] was tested, and the “% of control remaining” value was 108.033%. In the case of `O=C(NCCOc1ccccc1)c1nn(-c2ncccn2)c2ccccc12` [CBK048494], the “% of control remaining” value is reported as 157.735%. In the case of `CC(C)(C)OC(=O)CN1C(=O)N[C@@H]2CCCC[C@@H]21` [CBK003423], the “% of control remaining” value is reported as 125.226%. With `O=C(O)c1cccc(N2C(=O)C3C4C=CC(CO)(O4)C3C2=O)c1` (stereo not drawn) [CBK287066] the “% of control remaining” value was 112.628%. For `COC(=O)c1c(NC(=O)CC2Nc3ccccc3NC2=O)sc2c1CCC(C(C)(C)C)C2` (stereo not drawn) [CBK265614], the “% of control remaining” value was 89.68%. For `Cc1nn(Cc2ccc(F)cc2)c(C)c1NC(=O)c1cnn2c(C(F)(F)F)cc(-c3ccccc3)nc12` [CBK268231], the “% of control remaining” value was 121.781%. For `COc1ccc(Oc2nccnc2N2CCN(CC3CCCCC3)CC2)cc1OC` [CBK083064T], the “% of control remaining” value was 106.587%. In the case of `CCOC(=O)CN1CCC(Oc2nccnc2OCc2ccc(Cl)c(Cl)c2)CC1` [CBK083113T], the “% of control remaining” value is reported as 110.048%. With `CCN1CCC[C@@H]1CNc1cc(NS(=O)(=O)c2cccs2)cc2ccoc12` [CBK067904C] the “% of control remaining” value was 93.5287%. `O=C(CSc1nnc(SCc2cccc3ccccc23)s1)Nc1ccc(F)c(Cl)c1` [CBK267574] was tested, and the “% of control remaining” value was 110.987%.
